Measured values taken from patent publication US5391552A, “Diphenylpiperazine derivative and drug for circulatory organ containing the same” (Pola Chemical Industries, Inc., priority 1990, dated 1995).

Tested on: calcium
Test: Antagonism against calcium: inhibition of KCl-induced contraction of rat aorta ring specimens (Magnus tube, Test Example 1)
Parameters: species or system Male Wistar rats
Details: inhibits 50% of the maximum contraction by KCl (10-60 mM); rat aorta rings, 37 °C; read-out: 50% inhibitory concentration
Method: A test for antagonism against calcium of a diphenylpiperazine derivative according to the present invention and furnarizine was carried out as follows.
Male Wistar rats (300-350g) were exsanguinated to death and submitted to thoracotomy to take off aortae. Ring specimens having a width of 3 to 4 mm were prepared from the aortae. The specimen was suspended in a Magnus tube which was filled with Krebs Henseleit liquid of 37°±0.5° C., aerated with a mixing gas (95% of O2 and 5% of CO2) flowing in the liquid. A load of approximately 2 g was given to the specimen, and a tension variation was isometrically recorded.
The calcium antagonism was indicated by the concentration (M) of a testing agent which inhibits 50% of the maximum contraction of concentration-dependent-contraction (10-60 mM) of KCl, and the results were shown in Table 1.

IC50: 1.6 µM
Compound: Fc1ccc(C(c2ccc(F)cc2)N2CCN(C/C=C/c3ccccc3)CC2)cc1 [Furnarizine, furnarizine, reference compound]
